Construct, isoform or probe ends are uncertain for at least one entry. For some of these results: Negatives hold for the conditions tested. For some of these results: At least one verdict rests on a figure or table, not on a statement of the authors. For some of these results: At least one result comes from cells or an extract, where the contact may be indirect.
Tests used:
FLAG-AGO2 (Homo sapiens) [1] = target: FLAG-AGO2 (Homo sapiens) (UniProt Q9UKV8); experiment: EMSA (agarose native gel RISC assembly); settings: EMSA: 10 mM HEPES-KOH pH 7.4, 50 mM KCl, 1 mM DTT, 3% Ficoll-400, 0.1 mg/ml BSA, 10 nM RNA, 0-200 nM hAGO2, 30 min at 25 or 37 C, 6% native gel at 4 C, protein in a lysate after overexpression, protein details: FLAG, label: 32P guide strand
[2] = target: FLAG-AGO2 F181A (N domain mutant) (Homo sapiens) (UniProt Q9UKV8); experiment: EMSA (agarose native gel RISC assembly); settings: EMSA: 10 mM HEPES-KOH pH 7.4, 50 mM KCl, 1 mM DTT, 3% Ficoll-400, 0.1 mg/ml BSA, 10 nM RNA, 0-200 nM hAGO2, 30 min at 25 or 37 C, 6% native gel at 4 C, protein in a lysate after overexpression, protein details: FLAG, label: 32P guide strand
[3] = target: FLAG-AGO2 D597A (PIWI catalytic mutant) (Homo sapiens) (UniProt Q9UKV8); experiment: EMSA (agarose native gel RISC assembly); settings: EMSA: 10 mM HEPES-KOH pH 7.4, 50 mM KCl, 1 mM DTT, 3% Ficoll-400, 0.1 mg/ml BSA, 10 nM RNA, 0-200 nM hAGO2, 30 min at 25 or 37 C, 6% native gel at 4 C, protein in a lysate after overexpression, protein details: FLAG, label: 32P guide strand
[4] = target: recombinant human AGO2 (rhAGO2) (Homo sapiens) (UniProt Q9UKV8); experiment: EMSA; settings: EMSA: 10 mM HEPES-KOH pH 7.4, 50 mM KCl, 1 mM DTT, 3% Ficoll-400, 0.1 mg/ml BSA, 10 nM RNA, 0-200 nM hAGO2, 30 min at 25 or 37 C, 6% native gel at 4 C, recombinant protein, protein details: N-terminal FLAG and His; for binding result: 37 C
FLAG-AGO4 (Homo sapiens) = FLAG-AGO4 (Homo sapiens) (UniProt Q9HCK5); experiment: EMSA (agarose native gel RISC assembly); settings: 37 C; EMSA: 10 mM HEPES-KOH pH 7.4, 50 mM KCl, 1 mM DTT, 3% Ficoll-400, 0.1 mg/ml BSA, 10 nM RNA, 0-200 nM hAGO2, 30 min at 25 or 37 C, 6% native gel at 4 C; protein in a lysate after overexpression; protein details: FLAG; label: 32P guide strand
FLAG-AGO3 (Homo sapiens) = FLAG-AGO3 (Homo sapiens) (UniProt Q9H9G7); experiment: EMSA (agarose native gel RISC assembly); settings: 37 C; EMSA: 10 mM HEPES-KOH pH 7.4, 50 mM KCl, 1 mM DTT, 3% Ficoll-400, 0.1 mg/ml BSA, 10 nM RNA, 0-200 nM hAGO2, 30 min at 25 or 37 C, 6% native gel at 4 C; protein in a lysate after overexpression; protein details: FLAG; label: 32P guide strand
FLAG-AGO1 (Homo sapiens) = FLAG-AGO1 (Homo sapiens) (UniProt Q9UL18); experiment: EMSA (agarose native gel RISC assembly); settings: 37 C; EMSA: 10 mM HEPES-KOH pH 7.4, 50 mM KCl, 1 mM DTT, 3% Ficoll-400, 0.1 mg/ml BSA, 10 nM RNA, 0-200 nM hAGO2, 30 min at 25 or 37 C, 6% native gel at 4 C; protein in a lysate after overexpression; protein details: FLAG; label: 32P guide strand
FLAG-AGO2 (Homo sapiens) [5] = target: FLAG-AGO2 (Homo sapiens) (UniProt Q9UKV8); experiment: FLAG pull-down; settings: 37 C, protein in a lysate after overexpression, protein details: FLAG, label: 32P guide strand
[6] = target: FLAG-AGO2 dN (Homo sapiens) (UniProt Q9UKV8); experiment: EMSA (agarose native gel RISC assembly); settings: EMSA: 10 mM HEPES-KOH pH 7.4, 50 mM KCl, 1 mM DTT, 3% Ficoll-400, 0.1 mg/ml BSA, 10 nM RNA, 0-200 nM hAGO2, 30 min at 25 or 37 C, 6% native gel at 4 C; protein in a lysate after overexpression; protein details: FLAG; label: 32P guide strand

“UGAGGUAGUAGGUUGUAUAGU / UAUACAACCUACUACCUCUUC [let-7a siRNA-OMe9 duplex]”: binds (FLAG-AGO2 (Homo sapiens) [1]; unwound at 37 C, hardly at 25 C, 2'-OMe at passenger nt 9).

“UGGAAUGUAAAGAAGUAUGUA / CAUACUUCUUUACAUUCCCUA [miR-1 siRNA-OMe9 duplex]”: binds (FLAG-AGO2 (Homo sapiens) [1]; pre-RISC at 15 C, mature RISC after shift to 37 C, 2'-OMe at passenger nt 9, letters put together from the description); binds ([2]; pre-RISC forms, slower unwinding, 2'-OMe at passenger nt 9, letters put together from the description); binds ([3]; 37 C, 2'-OMe at passenger nt 9, letters put together from the description).

With “UGGAAUGUAAAGAAGUAUGUA / CAUACUUCUUUACAUUCCCUA [miR-1 siRNA duplex]” the Kd ([4]; 25 C, label: 32P guide strand) was over 0.2 µM, the binding result ([4]; label: 32P guide strand) was “no binding” and the binding result (FLAG-AGO4 (Homo sapiens)) was “binds”. “UGGAAUGUAAAGAAGUAUGUA / CAUACUUCUUUACAUUCCCUA [miR-1 siRNA duplex]”: binds (FLAG-AGO3 (Homo sapiens)); binds (FLAG-AGO1 (Homo sapiens)); binds [3]. “UGGAAUGUAAAGAAGUAUGUA / CAUACUUCUUUACAUUCCCUA [miR-1 siRNA duplex]”: binds (FLAG-AGO2 (Homo sapiens) [5]).

“UGGAAUGUAAAGAAGUAUGUA / CAUACUUCUUUACAUUCCCUA [miR-1 siRNA-OMe duplex]”: binds (FLAG-AGO2 (Homo sapiens) [1]; unwinding reduced, complete maturation at 42 C, passenger fully 2'-OMe, letters put together from the description).

“UGAGGUAGUAGGUUGUAUAGUU / CUAUACAAUCUACUGUCUUUC [let-7a-1 miRNA duplex]”: binds (FLAG-AGO2 (Homo sapiens) [1]; 25 C).

“UGGAAUGUAAAGAAGUAUGUA / CAUACUUCUUUAUAUGCCCAUA [miR-1 miRNA duplex]”: no binding ([4]; label: 32P guide strand); binds ([2]; unwinding less efficient than wild type at 25 C); no binding [6]. “UGGAAUGUAAAGAAGUAUGUA / CAUACUUCUUUAUAUGCCCAUA [miR-1 miRNA duplex]”: binds (FLAG-AGO2 (Homo sapiens) [5]).

“UGGAAUGUAAAGAAGUAUGUA [miR-1 guide ssRNA]”: binds ([4]; label: 32P).

“UGGAAUGUAAAGAAGUAUGUA / CAUACUUCUUUAUAUGCCCAUA [miR-1-OMe duplex]”: binds (FLAG-AGO2 (Homo sapiens) [1]; 25 C and 37 C, passenger fully 2'-OMe).

“UGAGGUAGUAGGUUGUAUAGUU / CUGUACAGCCUCCUAGCUUUCC [let-7a-2 miRNA duplex]”: binds (FLAG-AGO2 (Homo sapiens) [1]; 25 C).

“UGGAAUGUAAAGAAGUAUGUA / CAUACUUCUUUACAUUCCCUA [miR-1 siRNA PS duplex]”: no binding ([4]; phosphorothioate (PO/PS) between passenger nt 9 and 10, label: 32P guide strand); binds (FLAG-AGO2 (Homo sapiens) [5]; phosphorothioate (PO/PS) between passenger nt 9 and 10).
